Reference: US9381172B2, “Small molecule choline kinase inhibitors, screening assays, and methods for treatment of neoplastic disorders” (UNIVERSITY OF LOUISVILLE RESEARCH FOUNDATION, INC., priority 2009, dated 2016)
At least one structure is not confirmed: it was looked up by name or label, or the drawing left a doubt.

Protein sequences, listed by entry. Tags and fused reporters are not part of them.
UniProt P35790, whole entry: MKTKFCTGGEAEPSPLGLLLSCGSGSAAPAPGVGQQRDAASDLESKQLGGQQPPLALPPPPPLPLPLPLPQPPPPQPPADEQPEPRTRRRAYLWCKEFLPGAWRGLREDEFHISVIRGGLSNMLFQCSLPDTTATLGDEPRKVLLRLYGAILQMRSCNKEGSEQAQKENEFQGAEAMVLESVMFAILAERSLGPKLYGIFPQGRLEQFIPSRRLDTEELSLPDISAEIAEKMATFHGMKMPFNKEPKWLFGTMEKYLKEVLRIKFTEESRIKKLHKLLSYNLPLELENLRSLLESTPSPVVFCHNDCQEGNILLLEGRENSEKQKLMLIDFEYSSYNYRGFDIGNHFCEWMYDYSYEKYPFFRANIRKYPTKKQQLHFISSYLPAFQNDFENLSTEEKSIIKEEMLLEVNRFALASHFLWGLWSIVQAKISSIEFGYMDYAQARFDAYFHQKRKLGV

What was measured:
[1] = tested on: choline kinase (HeLa lysates); assay: Choline kinase activity assay of HeLa cell lysates; assay type: biochemical
Experimental: Choline kinase activity was assayed as described previously in Hernandez-Alcoceba et al. “Choline kinase inhibitors as a novel approach for antiproliferative drug design,” Oncogene 1997, 15:2289-2301, the disclosure of which is incorporated herein by this reference. For HeLa cell lysate, equal volume of lysate was incubated in the presence or absence of the tested compound in kinase assay buffer (100 mM Tris-HCl, 100 mM MgCl2, 10 mM ATP, 200 μM choline, and 2 μM methyl[^14C]-choline chloride (50-60 μCi, mmol). Reactions were carried out at 37° C. for one hour and immediately stopped by addition of TCA (Trichloroacetic Acid) to a final concentration of 16%. The TCA soluble fraction was then washed 3× with four volumes of water saturated ethyl ether, and dried under vacuum. Metabolites were separated by thin layer chromatography using 60 Å silica gel plates and a liquid phase consisting of 0.9% NaCl:methanol:ammonium hydroxide (50:70:5; V:V:V). Radioactive images were resolved by PhosphorImager screening and densitometry was performed using Image Quant software.

HeLa Cells [2] = assay: Actin/cytoskeleton and focal adhesion immunofluorescence; assay type: cell-based; conditions: 10 μM, 48 hours; FIG. 4B
HeLa Cells [3] = assay: Cell Growth Inhibition, HeLa cells (trypan blue exclusion); assay type: cell-based
Experimental: HeLa (ATCC: CCL-2), A549-human lung carcinoma (ATCC: CCL-185), Lewis lung carcinoma (LLC) (ATCC: CRL-1642), and melanoma cells (ATCC: CRL-11147) were cultured in DMEM (Hyclone) supplemented with 10% fetal bovine serum (Hyclone) and 50 μg/mL gentamicin sulfate (Invitrogen). Jurkat leukemia cells were cultured in RPMI (Hyclone) supplemented with 10% fetal bovine serum and 50 μg/mL gentamicin sulfate. Human mammary epithelial cells were grown in mammary epithelial basal medium (Lonza) supplemented according to manufacturer's protocol. All cell lines were maintained at 5% CO2 at 37° C.
All cell lines were plated at 1×10^5/mL in the appropriate medium. For suspension cells, the tested compound was added immediately to the medium, whereas the tested compound treatment was initiated the following day for adherent cell lines. For overexpression studies, HeLa cells were transiently transfected with empty vector or vector containing wild type choline kinase twenty-four hours prior to addition of increasing concentrations of CK37. Cells were then collected 48 h after treatment, and cell number and viability were determined by trypan blue exclusion. IC50s were calculated at the tested compound concentration needed for 50% of vehicle-treated cell growth (see Table 4). The data represented are the mean±STD from triplicate measurements from three independent experiments.

[4] = tested on: endogenous choline kinase (HeLa cells); assay: Choline kinase activity in whole HeLa cells (radiolabeled choline); assay type: cell-based; conditions: 1 μM; FIG. 2B
Experimental: For HeLa cell labeling, cells were seeded at 1×10^5 cells/mL and incubated with increasing concentrations of the tested compound for 48 hours. Methyl[^14C]-choline chloride was added 24 hours before cell harvest, and cells were extracted and analyzed as described above. Densitometry units were normalized to total protein levels for each sample.

[5] = tested on: HeLa and MDA-MB-231 cells; assay: Electron microscopy of the plasma membrane; assay type: cell-based; conditions: 10 μM, 48 hours; FIG. 4C
[6] = target: T1, human recombinant choline kinase (Homo sapiens, UniProt P35790); assay: Choline kinase activity assay with human recombinant choline kinase; assay type: biochemical; conditions: FIG. 2C
T1 construct: GST (cleaved yes); made in house; host or cells: E. coli

[7] = tested on: ERK1/2 phosphorylation (HeLa cells); assay: ERK1/2 phosphorylation western blot; assay type: cell-based; conditions: 10 μM; FIG. 4A

SMILES: CCc1ccc(-c2nnc(SCC(=O)Nc3cc(C)cc(C)c3)[nH]2)cc1 [CK37, N-(3,5-dimethylphenyl)-2-[[5-(4-ethylphenyl)-1H-1,2,4-triazol-3-yl]sulfanyl]acetamide]
- suppression of choline kinase activity ([1]; 100 μM of compound, FIG. 1, lysate or recombinant enzyme not given): 30.8%±2.7%
- decrease in choline kinase activity ([1]; HeLa cell lysates, between 1 and 10 μM CK37, FIG. 2A): 28.2%±5.8%
- further decrease in choline kinase activity at higher concentrations ([1]; HeLa cell lysates, up to 50 μM): did not observe any further significant decrease in activity
- focal adhesion points and stress fibers (HeLa Cells [2]): disrupted the localization of focal adhesion points as well as the appearance of stress fibers
- anti-proliferative effect with increased choline kinase expression (HeLa Cells [3]; HeLa cells overexpressing wild type choline kinase, FIG. 3C): show resistance to CK37's anti-proliferative effects
- anti-proliferative effect with added phosphocholine (HeLa Cells [3]; HeLa cells, 100 μM phosphocholine, FIG. 3D): show resistance to CK37's anti-proliferative effects
- inhibition of endogenous choline kinase activity in whole cells [4]: inhibited endogenous choline kinase activity
- membrane extensions [5]: attenuated these structures
- inhibition of recombinant choline kinase activity [6]: inhibited recombinant choline kinase activity
- phosphorylation of ERK1/2 [7]: decreased the phosphorylation of ERK1/2
- total ERK1/2 levels [7]: remained unchanged
